Drawing on publication PMC10011557, this text covers binding for three molecules.

These are yes or no findings as the source states them, for the method shown. For some of these results: Binding can be weak; no strength is given. For some of these results: Where a sequence is shown, tags or fusion partners need not be part of it. For some of these results: In cells and extracts the contact can be indirect.

For test [1], the target named is Myc-AMPK. The test is described as follows: co-IP; Flag-SAPS3 and Myc-AMPK co-expressed in 293T; lysates immunoprecipitated with anti-Myc or anti-Flag beads, Western blotting. For orientation: Immunoblotting shows a protein as a band on a membrane.
Test [2] deals with His-AMPK (recombinant, unphosphorylated). The test is described as follows: pull-down; 3 μg of each recombinant protein mixed, 37 °C 1 h in 25 mM Tris pH 8.0, 150 mM NaCl, 2 mM DTT, 1 mg/ml BSA; His-AMPK or His-pAMPK held on nickel affinity beads, Western blotting; both purified.
Test [3] addresses Flag-tagged AMPKα2. The test is described as follows: condition: only glucose addback for 3 h after glucose deprivation; co-IP; Flag-AMPK overexpressed in 293T; glucose deprivation followed by glucose addback for 3 h; anti-Flag beads, Western blotting.
Test [4] concerns the target Flag-tagged AMPKα2. The test can be described thus: co-IP; Flag-AMPK overexpressed in 293T; glucose deprivation or addback 1 h; anti-Flag beads, Western blotting for endogenous SAPS3 and PP6C.

B1: Flag-SAPS3 (protein, UniProt Q5H9R7 1-873)
chain: MFWKFDLHSSSHIDTLLEREDVTLKELMDEEDVLQECKAQNRKLIEFLLKAECLEDLVSFIIEEPPQDMDEKIRYKYPNISCELLTSDVSQMNDRLGEDESLLMKLYSFLLNDSPLNPLLASFFSKVLSILISRKPEQIVDFLKKKHDFVDLIIKHIGTSAIMDLLLRLLTCIEPPQPRQDVLNWLNEEKIIQRLVEIVHPSQEEDRHSNASQSLCEIVRLSRDQMLQIQNSTEPDPLLATLEKQEIIEQLLSNIFHKEKNESAIVSAIQILLTLLETRRPTFEGHIEICPPGMSHSACSVNKSVLEAIRGRLGSFHELLLEPPKKSVMKTTWGVLDPPVGNTRLNVIRLISSLLQTNTSSINGDLMELNSIGVILNMFFKYTWNNFLHTQVEICIALILASPFENTENATITDQDSTGDNLLLKHLFQKCQLIERILEAWEMNEKKQAEGGRRHGYMGHLTRIANCIVHSTDKGPNSALVQQLIKDLPDEVRERWETFCTSSLGETNKRNTVDLVTTCHIHSSSDDEIDFKETGFSQDSSLQQAFSDYQMQQMTSNFIDQFGFNDEKFADQDDIGNVSFDRVSDINFTLNTNESGNIALFEACCKERIQQFDDGGSDEEDIWEEKHIAFTPESQRRSSSGSTDSEESTDSEEEDGAKQDLFEPSSANTEDKMEVDLSEPPNWSANFDVPMETTHGAPLDSVGSDVWSTEEPMPTKETGWASFSEFTSSLSTKDSLRSNSPVEMETSTEPMDPLTPSAAALAVQPEAAGSVAMEASSDGEEDAESTDKVTETVMNGGMKETLSLTVDAKTETAVFKSEEGKLSTSQDAACKDAEECPETAEAKCAAPRPPSSSPEQRTGQPSAPGDTSVNGPV
With B1, in test [1], the binding entry is “binds”.

B2: recombinant Myc-PPP6R3 protein (protein, UniProt Q5H9R7 1-873)
chain: MFWKFDLHSSSHIDTLLEREDVTLKELMDEEDVLQECKAQNRKLIEFLLKAECLEDLVSFIIEEPPQDMDEKIRYKYPNISCELLTSDVSQMNDRLGEDESLLMKLYSFLLNDSPLNPLLASFFSKVLSILISRKPEQIVDFLKKKHDFVDLIIKHIGTSAIMDLLLRLLTCIEPPQPRQDVLNWLNEEKIIQRLVEIVHPSQEEDRHSNASQSLCEIVRLSRDQMLQIQNSTEPDPLLATLEKQEIIEQLLSNIFHKEKNESAIVSAIQILLTLLETRRPTFEGHIEICPPGMSHSACSVNKSVLEAIRGRLGSFHELLLEPPKKSVMKTTWGVLDPPVGNTRLNVIRLISSLLQTNTSSINGDLMELNSIGVILNMFFKYTWNNFLHTQVEICIALILASPFENTENATITDQDSTGDNLLLKHLFQKCQLIERILEAWEMNEKKQAEGGRRHGYMGHLTRIANCIVHSTDKGPNSALVQQLIKDLPDEVRERWETFCTSSLGETNKRNTVDLVTTCHIHSSSDDEIDFKETGFSQDSSLQQAFSDYQMQQMTSNFIDQFGFNDEKFADQDDIGNVSFDRVSDINFTLNTNESGNIALFEACCKERIQQFDDGGSDEEDIWEEKHIAFTPESQRRSSSGSTDSEESTDSEEEDGAKQDLFEPSSANTEDKMEVDLSEPPNWSANFDVPMETTHGAPLDSVGSDVWSTEEPMPTKETGWASFSEFTSSLSTKDSLRSNSPVEMETSTEPMDPLTPSAAALAVQPEAAGSVAMEASSDGEEDAESTDKVTETVMNGGMKETLSLTVDAKTETAVFKSEEGKLSTSQDAACKDAEECPETAEAKCAAPRPPSSSPEQRTGQPSAPGDTSVNGPV
As for B2, the binding result in test [2] is listed as “binds”.

B3: serine/threonine-protein phosphatase 6 regulatory subunit 3, SAPS3 (endogenous, 293T) (protein, UniProt Q5H9R7 1-873)
chain: MFWKFDLHSSSHIDTLLEREDVTLKELMDEEDVLQECKAQNRKLIEFLLKAECLEDLVSFIIEEPPQDMDEKIRYKYPNISCELLTSDVSQMNDRLGEDESLLMKLYSFLLNDSPLNPLLASFFSKVLSILISRKPEQIVDFLKKKHDFVDLIIKHIGTSAIMDLLLRLLTCIEPPQPRQDVLNWLNEEKIIQRLVEIVHPSQEEDRHSNASQSLCEIVRLSRDQMLQIQNSTEPDPLLATLEKQEIIEQLLSNIFHKEKNESAIVSAIQILLTLLETRRPTFEGHIEICPPGMSHSACSVNKSVLEAIRGRLGSFHELLLEPPKKSVMKTTWGVLDPPVGNTRLNVIRLISSLLQTNTSSINGDLMELNSIGVILNMFFKYTWNNFLHTQVEICIALILASPFENTENATITDQDSTGDNLLLKHLFQKCQLIERILEAWEMNEKKQAEGGRRHGYMGHLTRIANCIVHSTDKGPNSALVQQLIKDLPDEVRERWETFCTSSLGETNKRNTVDLVTTCHIHSSSDDEIDFKETGFSQDSSLQQAFSDYQMQQMTSNFIDQFGFNDEKFADQDDIGNVSFDRVSDINFTLNTNESGNIALFEACCKERIQQFDDGGSDEEDIWEEKHIAFTPESQRRSSSGSTDSEESTDSEEEDGAKQDLFEPSSANTEDKMEVDLSEPPNWSANFDVPMETTHGAPLDSVGSDVWSTEEPMPTKETGWASFSEFTSSLSTKDSLRSNSPVEMETSTEPMDPLTPSAAALAVQPEAAGSVAMEASSDGEEDAESTDKVTETVMNGGMKETLSLTVDAKTETAVFKSEEGKLSTSQDAACKDAEECPETAEAKCAAPRPPSSSPEQRTGQPSAPGDTSVNGPV
As for B3, the values for the binding entry in test [3] and in test [4] were “no binding” and “binds”, respectively.
